Measured values published in patent US20190185531A1.
No constants are given. Whether binding was seen depends on the method and setting. Some results given as binding are weak or reduced against the parent protein; the word gives no strength. Sequences can lack the tags named with a protein.

T1: human Bfl-1 (c-myc-tagged) (human) (UniProt Q16548)
T1 sequence (looked up): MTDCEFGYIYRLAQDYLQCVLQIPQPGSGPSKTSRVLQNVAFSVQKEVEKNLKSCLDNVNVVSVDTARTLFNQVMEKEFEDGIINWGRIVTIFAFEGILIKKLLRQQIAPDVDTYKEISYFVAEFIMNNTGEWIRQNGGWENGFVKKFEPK


These binders were tested against T1, human Bfl-1 (c-myc-tagged) (human) (assay: assay not described).

Row | Binder | binding
1 | QWVREIAAGLRRAANDVNAQVER [FS2 with asparagine at position F3 (D3f)] | binds
2 | QWVREIAAGLRRAAADVNAQVER [FS2 with alanine at position F3 (D3f)] | binds

More lines, now with the values ahead:

Row | binding | Binder
3 | binds | QWVREIAAGLRRAAHDVNAQVER [FS2 with histidine at position F3 (D3f)]
4 | binds | QWVREIAAGLRRAAEDVNAQVER [FS2 with glutamate at position F3 (D3f)]
5 | binds | QWVREIAAGLRRAAYDVNAQVER [FS2 with tyrosine at position F3 (D3f)]
6 | binds | QWVREIAAGLRRAASDVNAQVER [FS2 with serine at position F3 (D3f)]

Each binder was assayed against T1, human Bfl-1 (c-myc-tagged) (human) (assay: competition fluorescence anisotropy (FIG. 2I)).

Row | binding | Binder
7 | binds | QWVREIAAGLRLAADNVNAQLER (N-terminal acetylation; C-terminal amidation) [FS1]
8 | binds | QWIREIAAGLRRFADILNAQVER (N-terminal acetylation; C-terminal amidation) [FS3]

Each binder was assayed against T1, human Bfl-1 (c-myc-tagged) (human) (assay: competition fluorescence polarization with fluoresceinated Bim peptide).

Row | binding | Binder
9 | binds | QWVREIAAGLRLAADNVNAQLER (N-terminal acetylation; C-terminal amidation) [FS1]
10 | binds | QWIREIAAGLRRFADILNAQVER (N-terminal acetylation; C-terminal amidation) [FS3]

Each binder was assayed against T1, human Bfl-1 (c-myc-tagged) (human) (assay: competition fluorescence polarization with fluoresceinated Bim peptide (FIG. 7, FIG. 8)).

Row | binding | Binder
11 | binds | QWVREIAAGLRLAADNVNAQLER (N-terminal acetylation; C-terminal amidation) [FS1]
12 | binds | QWIREIAAGLRRFADILNAQVER (N-terminal acetylation; C-terminal amidation) [FS3]
